Measured values taken from PubChem BioAssay AID662 (National Center for Advancing Translational Sciences (NCATS), 2007).
Several values for one entry are separate records, joined by “and”; a condition that tells them apart may be missing. Equal entries are not always repeated. The list shows a part of the results. The main result of the screen is listed elsewhere. These columns were measured beside it and carry no call. The list favours compounds with an active or inconclusive main result. Potencies come from curve fits of mixed quality, noted in brackets.

Assay: Cell signaling CRE-BLA (Fsk stim)
Details: CHO CRE-bla reporter (cAMP response element driving beta-lactamase), forskolin EC10, beta-lactamase ratio; measured here: 460 nm blue channel
Procedure, shortened: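 Reporter-gene assay: CHO cells with beta-lactamase behind cAMP responsive elements, co-treated with compound and EC10 NKH 477 for 3 hours at 37 degrees Celsius. Activity came from the 460/530 nm CCF4 emission ratio.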

SMILES | AC50
COc1ccccc1OCC(O)Cn1c(=N)n(Cc2ccccc2)c2ccccc21 (stereo unspecified) | 3.98 µM [falling, partial curve]
COc1ccc(-c2cc(C(=O)N3CC4(C)CC3CC(C)(C)C4)no2)cc1 (stereo unspecified) | 0.00398 µM [falling, full curve, poor fit]
O=C(Nc1ccc2nc(-c3cccnc3)[nH]c2c1)c1ccco1 | 10 µM [rising, partial curve]
CN1CCN(c2ncc3nc(-c4cc(F)cc(F)c4)c(=O)n(-c4ccccc4)c3n2)CC1 | 5.01 µM [rising, partial curve]
CCOC(=O)c1cnn2c(C)cc(-c3ccccc3)nc12 | 6.31 µM [rising, partial curve]
COc1cccc(-c2cnc(NCc3cc(Cl)ccc3O)n2C)c1 | 20 µM [falling, partial curve]
COc1ccc(-c2noc(-c3ccccc3Cl)n2)cc1OC | 20 µM [rising, single point]
COC(=O)c1c(-c2cc(OC)c(OC)c(OC)c2)c2ccc(OCc3ccccn3)cc2c(=O)n1-c1ccc(N)cc1 | 12.6 µM [rising, partial curve]
O=C(O)[C@@H]1[C@H](C(=O)O)[C@H]2C(=O)C=C[C@H]1N2Cc1ccccc1 | 3.98 µM [falling, single point]
CCCCNC(NCCCC)=C(S(=O)(=O)CC)S(=O)(=O)CC | 0.398 µM [rising, partial curve]
Cc1c(C(=O)N2CCN(C(=O)c3ccco3)CC2)sc2nc(-c3ccc(F)cc3)cn12 | 5.01 µM [rising, partial curve]
COc1ccccc1CNc1nc(-c2ccccc2CN(C)C)nc2ccccc12 | 7.94 µM [rising, partial curve]
CN1CCN(CCCNC(=O)c2cc3c(=O)oc4ccccc4c3s2)CC1 | 10 µM [rising, partial curve]
COC(=O)c1[nH]c2cc(OC)ccc2c1N | 3.98 µM [falling, partial curve]
COc1ccc(-n2c(=O)c(-c3cccc(C#N)c3)nc3cnc(N4CCNCC4)nc32)cc1 | 12.6 µM [rising, partial curve]
CCOc1ccc(N2C(=O)c3cccnc3C2Nc2ccc(C)cc2)cc1 (stereo unspecified) | 0.01 µM [rising, full curve]
CCOC(=O)c1c(C)[nH]c(C(=O)COc2ccc3c(c2)OCO3)c1C | 10 µM [rising, single point]
COc1ccc(CC(=O)Nc2ccc3c(c2)CCC3)cc1S(=O)(=O)N1CCOCC1 | 0.631 µM [falling, full curve, poor fit]
CNc1ncnc2ccc(-c3ccccc3CN(C)C)cc12 | 7.94 µM [rising, partial curve]
O=C(Nc1nc2c(s1)CCc1ccccc1-2)c1ccco1 | 10 µM [rising, single point]
CCOC(=O)C1[C@H]2C(=O)N(CCCOC)C[C@]23C=C[C@H]1O3 (stereo partly specified) | 12.6 µM [falling, partial curve]
Nc1sccc1C(=O)c1ccc(Cl)cc1 | 25.1 µM [falling, single point]

SMILES | AC50
CCCNc1nc2c(c(=O)[nH]c(=O)n2C)n1CCC(C)C | 10 µM [rising, partial curve]
COC(=O)c1ccccc1NC(=O)c1ccc(COc2ccccc2)o1 | 5.01 µM [rising, full curve]
COc1ncc2nc(CCc3ccccc3)c(=O)n(CCc3ccccc3)c2n1 | 25.1 µM [rising, single point]
CCCCCSc1nc2c(c(=O)[nH]c(=O)n2C)n1CC | 6.31 µM [rising, partial curve]
O=C(Nc1ccc2c(c1)OCO2)C1CCCN(c2nc3ccccc3s2)C1 (stereo unspecified) | 0.0501 µM [falling, full curve, poor fit]
CCn1c(=O)c2cc(C(=O)NCCN3CCOCC3)sc2c2ccccc21 | 1.58 µM [rising, partial curve]
C=C(C)c1nc(N)nc(N)n1 | 0.794 µM [falling, full curve]
O=C(OC1CCOC1=O)c1cncc(Br)c1 (stereo unspecified) | 2.51 µM [falling, single point]
CCC(=O)N(Cc1cc2cc(OC)ccc2[nH]c1=O)c1cc(C)ccc1C | 12.6 µM [rising, single point]
COC(=O)c1cccc(NC(=O)CN2CCN(c3ccc(OC)cc3)CC2)c1 | 10 µM [rising, single point]
N/C(=N/O)c1nc(N2CCCCC2)nc(N2CCCCC2)n1 | 0.316 µM [falling, partial curve]
COc1ccc(N/C(=N\c2nc(C)cc(C)n2)NC(C)=O)cc1OC | 5.01 µM [rising, single point]
CC(C)Cn1c(SC(C)C(=O)Nc2ccc3c(c2)OCCO3)nc2ccccc2c1=O (stereo unspecified) | 3.98 µM [rising, full curve]
c1ccc(Nc2cc(-c3ccccc3)nc3ncnn23)cc1 | 10 µM [rising, partial curve]
CCN(CC)CCn1c(-c2ccccc2)nc2c(NC3CCCCC3)nc(C)nc21 | 10 µM [rising, partial curve]
CC(C)OC(=O)c1cc(NC(=O)C2C3CCC(O3)C2C(=O)O)cc(C(=O)OC(C)C)c1 (stereo unspecified) | 12.6 µM [rising, partial curve]
CC(=O)Oc1ccc(/C=C\C(=O)C[C@@H]2O[C@@H](Oc3cc(OC(C)=O)c4c(c3)O[C@@H](c3ccc(OC(C)=O)cc3)CC4=O)[C@H](OC(C)=O)[C@H](OC(C)=O)[C@@H]2OC(C)=O)cc1 | 25.1 µM [falling, partial curve, poor fit]
COCCn1c(=O)c(-c2ccccc2)nc2cnc(N3CCOCC3)nc21 | 10 µM [rising, partial curve]
O=C(Nc1ccc2c(c1)OCCO2)C1CCCN(c2ncccn2)C1 (stereo unspecified) | 10 µM [rising, single point]
CC1=C(C(=O)OC2CCCCC2)C(c2cccnc2)n2nnnc2N1 (stereo unspecified) | 0.251 µM [rising, full curve, poor fit]
O=C(NC1=NCCS1)c1cc(-c2ccccc2)nn1-c1ccccc1 | 0.126 µM [falling, full curve]
CCCc1nc(SCC(=O)Nc2ccccc2OC)c2c(=O)n(C)c(=O)n(C)c2n1 | 2 µM [rising, full curve]

Structures shown so far that have an aryl thioether with sulfur outside any ring (3):
SMILES | AC50
CCCCCSc1nc2c(c(=O)[nH]c(=O)n2C)n1CC | 6.31 µM [rising, partial curve]
CC(C)Cn1c(SC(C)C(=O)Nc2ccc3c(c2)OCCO3)nc2ccccc2c1=O (stereo unspecified) | 3.98 µM [rising, full curve]
CCCc1nc(SCC(=O)Nc2ccccc2OC)c2c(=O)n(C)c(=O)n(C)c2n1 | 2 µM [rising, full curve]

Further structures follow:

SMILES | AC50
Cc1ccc(C)c(C(C)NC(=O)C2C3CCC(O3)C2C(=O)O)c1 (stereo unspecified) | 10 µM [rising, partial curve]
CCOC(=O)C1=C(C)Nc2ncnn2C1/C=C/c1ccccc1 (stereo unspecified) | 10 µM [rising, partial curve]
CCn1c(C2CC(=O)N(c3cc(C)cc(C)c3)C2)nc2ccccc21 (stereo unspecified) | 10 µM [rising, single point]
CC(C)OC(=O)c1cccc(C(=O)OCc2ccco2)n1 | 12.6 µM [falling, single point]
O=C(CCn1c(=O)oc2ccccc21)NCc1cccs1 | 0.00398 µM [falling, full curve, poor fit]
COc1cc(C2c3c(-c4cc(Cl)c(C)cc4O)n[nH]c3C(=O)N2Cc2cccnc2)ccc1O (stereo unspecified) | 1.58 µM [rising, partial curve]
COc1ccc(O)c(-c2cc(-c3cccc(Br)c3)n[nH]2)c1 | 25.1 µM [falling, single point]
COCc1nc2c([nH]1)c(=O)n(C)c(=O)n2CC(C)C | 25.1 µM [rising, single point] and 2.51 µM [rising, full curve]
CN1CCCN(CC(O)COCc2cccs2)CC1 (stereo unspecified) | 5.01 µM [falling, single point]
CCOC(=O)CSC1=Nc2ccccc2C2=NC(CC(=O)NCc3ccc(OC)cc3)C(=O)N12 (stereo unspecified) | 0.631 µM [falling, partial curve]
CCOc1ccc(Cl)cc1S(=O)(=O)n1nnc2ccccc21 | 12.6 µM [falling, single point]
Cc1ccc(NC(=O)C2CCN(S(=O)(=O)c3c(C)n[nH]c3C)CC2)nc1 | 25.1 µM [falling, single point]
CCCC[C@@H]1C[C@H]1C(NC(=O)c1cccnc1)c1ccc(-c2ccccc2)cc1 (stereo partly specified) | 12.6 µM [rising, partial curve]
Cc1nc2cnc(Nc3ccccc3)nc2n(Cc2cccs2)c1=O | 15.8 µM [rising, partial curve]
N#Cc1c(NC(=O)CSc2ncn(-c3ccccc3)n2)sc2c1CCCC2 | 0.501 µM [falling, full curve, poor fit]
COc1cccc2sc(Nc3nnc(-c4cccs4)o3)nc12 | 3.98 µM [falling, partial curve]
CCc1nc2ccccc2n1Cc1cc(=O)n2cc(C)ccc2n1 | 12.6 µM [rising, partial curve, poor fit]
Cc1ccc2oc3c(c(=O)c2c1)C(c1cccc(Cl)c1)N(CCCN1CCOCC1)C3=O (stereo unspecified) | 15.8 µM [rising, single point]
Cc1onc(-c2ccccc2)c1C(=O)Oc1cccnc1 | 25.1 µM [rising, single point]
CC(=O)c1cc2c(cc1NC(=O)c1cc(C)nn1-c1ccccc1)OCO2 | 12.6 µM [rising, partial curve]
CCOc1ccccc1NC(=O)Cn1cnc2c(nnn2-c2cccc(OC)c2)c1=O | 7.94 µM [rising, partial curve]
Cc1cc(NC(=O)c2ccc3nc(C)sc3c2)no1 | 3.98 µM [falling, single point]
